Data taken from paper PMC8256295.
Results are given in words; binding and its absence hold for the method and conditions named. In cells and extracts the contact can be indirect. Some results given as binding are weak or reduced against the parent protein; the word gives no strength.

Target: T1, transforming growth factor β-activated kinase 1 (TAK1) (plasmid-expressed in HEK293T cells) (UniProt O43318)
T1 sequence: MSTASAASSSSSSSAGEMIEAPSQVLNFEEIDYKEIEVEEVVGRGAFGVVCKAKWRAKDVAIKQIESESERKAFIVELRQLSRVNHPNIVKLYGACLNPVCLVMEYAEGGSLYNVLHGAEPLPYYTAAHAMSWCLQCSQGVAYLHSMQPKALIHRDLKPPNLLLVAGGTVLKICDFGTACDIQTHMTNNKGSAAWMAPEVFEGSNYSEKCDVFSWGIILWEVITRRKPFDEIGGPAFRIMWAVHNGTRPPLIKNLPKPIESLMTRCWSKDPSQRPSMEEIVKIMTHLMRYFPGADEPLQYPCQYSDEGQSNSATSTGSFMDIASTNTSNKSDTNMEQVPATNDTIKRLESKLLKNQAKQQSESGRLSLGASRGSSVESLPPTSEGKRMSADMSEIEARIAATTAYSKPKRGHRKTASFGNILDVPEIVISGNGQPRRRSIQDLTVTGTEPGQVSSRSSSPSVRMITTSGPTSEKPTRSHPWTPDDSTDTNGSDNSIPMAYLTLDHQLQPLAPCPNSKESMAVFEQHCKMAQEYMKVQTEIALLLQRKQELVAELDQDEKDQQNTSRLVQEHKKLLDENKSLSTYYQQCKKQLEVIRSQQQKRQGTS
Experiment: co-IP; HEK293T cells transiently transfected for 48 h; lysates incubated with anti-Flag M2 Affinity Gel and anti-GFP agarose beads at 4°C overnight; immunoblot

binding: binds
B1: Galectin-9(226–355) (domain or fragment, UniProt O00182 226-355)
chain: PFITTILGGLYPSKSILLSGTVLPSAQRFHINLCSGNHIAFHLNPRFDENAVVRNTQIDNSWGSEERSLPRKMPFVRGQSFSVWILCEAHCLKVAVDGQHLFEYYHRLRNLPTINRLEVGGDIQLTHVQT
